# In PubChem BioAssay AID540256 (National Center for Advancing Translational Sciences (NCATS), 2011):
# Screen size: about 300,000 compounds; about 3,700 (1.2%) were called active. Inconclusive results, whose numbers are uncertain, are shown with a selection of clear calls. Calls follow the shape of the full dose curve; tested in HEK293 cells. Where the call is inconclusive, the potency comes from a doubtful curve fit.
# Assay: qHTS for Inhibitors of binding or entry into cells for Lassa Virus; also: nearly all actives have a fitted effect of over 50% in size
# Conditions: Lassa virus pseudotype entry inhibition, cell reporter; activity change, negative = inhibition: at 37.9 µM (top of the series) unless noted
# % is scaled to controls: 0 for no effect and ±100 for the full control effect; potency is read from the fitted curve at half-maximal effect.
SMILES,"activity change, negative = inhibition",Potency
O=C(N1CCN(c2ccccc2F)CC1)C1(c2cccs2)CCOCC1,inactive: -18.9%,–
N#Cc1ccc(CSCC(=O)NN=C2CCCC2)cc1,–,"inconclusive: 22.4 µM [activator, partial curve, poor fit]"
O=C1Cc2ccccc2Sc2cc(OCCCN3CCCCC3)ccc21,–,"inconclusive: 32.6 µM [inhibitor, single point]"
Cn1c(SCc2cccnc2)nc2c(c1=O)SCC2,inactive: -2.1%,–
Cc1ccc(/C=C/C(=O)NCc2cccs2)cc1,–,active: 2 µM
Cn1cc(C(=O)c2cccc(Cl)c2)cc1/C=N\O,inactive: -23.7%,–
COc1ccc(C)c(Cn2c(-c3nonc3N)nc3ccccc32)c1,–,"inconclusive: 2.51 µM [inhibitor, full curve]"
Cc1cccc(NC(=O)CNC(=O)CN2C(=O)NC(C)(CCC(C)C)C2=O)c1C (configuration not stated),inactive: 5.74%,–
CCOC(=O)N1CCN(c2ccc(C(F)(F)F)cn2)CC1,–,"inconclusive: 20.6 µM [activator, partial curve, poor fit]"
CCOC(=O)N1CCC(NC(=O)c2ccc(N3CCC4(CC3)OCCO4)c([N+](=O)[O-])c2)CC1,–,"inconclusive: 2.82 µM [inhibitor, single point]"
COc1ccc(CN(Cc2ccco2)C(=O)c2ccccc2F)cc1,inactive: -25.4% [at 46.1 µM],–
COc1cccc(-c2cc(C(=O)Nc3ccc(Br)c(C)c3)[nH]n2)c1,–,"inconclusive: 3.98 µM [activator, full curve, poor fit]"
COc1ccccc1NC(=O)Nc1ccc(Cl)c(S(=O)(=O)Nc2ccccc2OC)c1,–,"inconclusive: 29.1 µM [inhibitor, single point]"
O=C(OCc1cccc(C(F)(F)F)c1)c1cc(S(=O)(=O)N2CCOCC2)ccc1F,–,"inconclusive: 35.5 µM [inhibitor, single point]"
CC(C)C(NC(=O)c1ccc(C(C)(C)C)cc1)C(=O)NCC1(N(C)C)CCCCC1 (configuration not stated),–,"inconclusive: 6.31 µM [inhibitor, single point]"
NC1C=CC=C(C(=O)O)C1 (configuration not stated),–,"inconclusive: 0.58 µM [activator, full curve, poor fit]"
COc1ccc(C(=O)NCCn2ccc3ccccc32)c(OC)c1,–,"inconclusive: 32.6 µM [inhibitor, single point]"
COc1ccc(Br)cc1C(=O)Nc1ccc(N2CCCC2)cc1,inactive: -6.69% [at 46.1 µM],–
O=C(CSc1nnc2ccccn12)NCc1cccs1,inactive: 6.48%,–
CC(C)(Sc1ccc(CCN(CCCCC2CCCCC2)C(=O)NC2CCCCC2)cc1)C(=O)O,inactive: -5.61%,–
C/C(=N/N=C(/C)c1cccs1)c1cccs1,inactive: 9.01% [at 46.1 µM],–
O=C(COC(=O)c1ccc([N+](=O)[O-])o1)Nc1cccc2ccccc12,–,"inconclusive: 14.1 µM [inhibitor, single point]"
O=C(CC1CCCCC1)NCc1ccccc1Cl,–,"inconclusive: 14.1 µM [inhibitor, single point]"
COc1ccc(C(C(=O)NC2CCCCC2)N(C(=O)CCl)c2ccccc2Cl)cc1 (configuration not stated),inactive: -0.988%,–

SMILES,"activity change, negative = inhibition",Potency
C[C@H]1CC[C@H]2C(=O)N(Cc3cccc([N+](=O)[O-])c3)C[C@H](O)CN2[C@H]1c1cccc(Br)c1,–,"inconclusive: 0.473 µM [activator, partial curve, poor fit]"
COc1ccc(C=NCCC2(O)CC(C)N(C)CC2C)cc1 (configuration not stated),–,"inconclusive: 7.08 µM [activator, partial curve]"
CCCCc1nc2n[nH]c(N)c2c2c1CSC(C)(C)C2,inactive: -8.19%,–
CC(c1ccc(F)cc1)n1cc(C(=O)NCCN(C)C)nn1 (configuration not stated),–,"inconclusive: 0.0058 µM [inhibitor, full curve, poor fit]"
CC1=NN(c2nc(-c3ccc(C#N)cc3)cs2)C(=O)C1,inactive: -28.4% [at 46.1 µM],–
Cc1oc(-c2ccc(C(=O)Nc3cccc(C(F)(F)F)c3)cc2)nc1CSc1ccccc1,inactive: -15.1% [at 46.1 µM],–
S=C(/N=c1/sccn1Cc1ccccc1)NC1CC1,–,"inconclusive: 12.6 µM [inhibitor, partial curve, poor fit]"
CCOC(=O)c1c(-c2ccc(OC)c(OC)c2)csc1NC(=O)C1CCCO1 (configuration not stated),–,"inconclusive: 35.5 µM [inhibitor, single point]"
CN(C)/C=N/c1nc2ccc3c(c2s1)CCCC3,–,"inconclusive: 2.59 µM [activator, partial curve, poor fit]"
O=C(CSc1nnc(-c2ccccc2O)o1)N1CCCCC1,–,"inconclusive: 25.1 µM [inhibitor, single point]"
NC(Cc1ccc(Oc2cc(I)c(O)c(I)c2)c(I)c1)C(=O)O (configuration not stated),–,"inconclusive: 35.3 µM [inhibitor, partial curve, poor fit]"
CCOc1ccc(Nc2nc(CC(=O)OC)cc(=O)[nH]2)cc1,–,"inconclusive: 4.11 µM [inhibitor, full curve]"
O=C(/C=C/c1ccccc1)CC(O)(c1ccccc1)C(F)(F)C(F)F (configuration not stated),–,"inconclusive: 18.3 µM [inhibitor, partial curve, poor fit]"
Cc1cc(C)c(NC(=O)CNC(=O)COC(=O)C2=COCCO2)c(C)c1,inactive: 9.24%,–
CCOC(=O)C1(Cc2ccccc2C(F)(F)F)CCN(CCCn2cccn2)CC1,–,"inconclusive: 17.8 µM [inhibitor, single point]"
c1ccc(CN2CCN(Cc3ccc4ccccc4c3)CC2)cc1,inactive: -3.77%,–
CCN(CC)CCCNC(=O)C1CCN(S(C)(=O)=O)CC1,–,"inconclusive: 11.2 µM [activator, single point]"
COc1ccccc1/C=N\Nc1ccccc1[N+](=O)[O-],–,"inconclusive: 0.891 µM [activator, single point]"
CCc1nnc2c3ccccc3nc(Nc3ccccc3OC)n12,inactive: 4.32% [at 46.1 µM],–
CCOc1ccccc1N1CCN(CC(=O)Nc2nc(C)c(C(=O)N(C)C)s2)CC1,inactive: 17.2%,–
S=c1[nH]nc(COc2ccccc2)n1/N=C/c1ccc(Cl)cc1Cl,–,"inconclusive: 3.16 µM [inhibitor, partial curve, poor fit]"
CCCCn1c(N)c(N(CC(C)C)C(=O)C2CCN(C(=O)c3ccc(F)cc3)CC2)c(=O)[nH]c1=O,inactive: 5.92% [at 46.1 µM],–
O=c1oc2c(-c3ccc([N+](=O)[O-])cc3)cc(O)cc2s1,–,"inconclusive: 3.16 µM [inhibitor, single point]"

# 3 structures out of the list, ordered by molecular weight, descending.
SMILES,"activity change, negative = inhibition",Potency
CCCCn1c(N)c(N(CC(C)C)C(=O)C2CCN(C(=O)c3ccc(F)cc3)CC2)c(=O)[nH]c1=O,inactive: 5.92% [at 46.1 µM],–
COc1ccc(Br)cc1C(=O)Nc1ccc(N2CCCC2)cc1,inactive: -6.69% [at 46.1 µM],–
CN(C)/C=N/c1nc2ccc3c(c2s1)CCCC3,–,"inconclusive: 2.59 µM [activator, partial curve, poor fit]"
